# Measured values as given in the supplement of paper PMC8728848.
# Some of the results follow.
# B1: Blon2355mut (Bifidobacterium longum) (protein)
# chain: MVQEPTLEWHVIPEPTNVEPLVGTCSLPLSGTVVEQRGADDAEAVFARQLVDDIKRVCGGRWQVASGEVQREVTLRTSPSLDDWSYVLEVSPDGVVITGSGFEGVRDGVQTLRQIIRQIGLTIPCMVIRDRPAFSTRGYYLDVTRGRVPSMAWLKSWVDRLCFYKYNQFQLYIEHTFQFNGLSEVWRGADPLTSSDILELDSYCAARGIELVPSVSTFGHHYTALRTRQLRDLGEFPEDADRPFSLIERMTHHTLNITDERSYEFSTSLIDELMPLFRSRKFNICANETFDLGKGRSKQESAKRGVGAMYADFVERLCRHVDDRGHDVMVWADVALEHPEIIDTLPKNITWLNWQYEPNVDDGTTAALADAGATQMVCPAVWCWNALIPRIDDAWNNITRMARHGRAHDVSGMLVTDWGDFGHVNDPRMSVPGMIFGAQQSWNPDAELSEVDMLSRISTIEYGDHTGSVVGALRGASAKGGFSWSDLVTYLELDDGRGGCNTEIVRVMGCLEAYRNDLPQSGQARLADARVSMLRTLRDSILAGRELNGKLDDAAKDITQLLRVAGDPSSAAVWSLAIDGQRLLNRVGLALLAAHGVVRQDEAGIDAAKLADELECWTEQYSRLWHEVSRQSELARIQHVVWRAADVLRSI
# Legend:
# Assay in all cases: glycan array binding signal (z-score within array); higher = stronger binding
# Details in all cases: glycan notation: IUPAC condensed, linker removed
# [1] = target: GlcNAc(b1-2)Man(a1-3)[GlcNAc(b1-2)Man(a1-6)]Man(b1-4)GlcNAc(b1-4)GlcNAc
# Summary of the method: (§1)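 The Consortium for Functional Glycomics database supplied 3228 glycan arrays, of which those lacking an available protein sequence were dropped. The binding signal, a within-array Z-score, was averaged across arrays of the same protein sequence and across linkers. Negative scores can be read as non-binding.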
# [2] = target: GlcNAc(b1-2)Man(a1-3)[GlcNAc(b1-2)Man(a1-6)]Man(b1-4)GlcNAc(b1-4)[Fuc(a1-6)]GlcNAc
# Summary of the method: as §1
# [3] = target: GlcNAc(b1-2)Man(a1-3)[GlcNAc(b1-4)][GlcNAc(b1-2)Man(a1-6)]Man(b1-4)GlcNAc(b1-4)GlcNAc
# Summary of the method: as §1
# [4] = target: GlcNAc(b1-2)Man(a1-3)[GlcNAc(b1-4)][GlcNAc(b1-2)Man(a1-6)]Man(b1-4)GlcNAc(b1-4)[Fuc(a1-6)]GlcNAc
# Summary of the method: as §1
# [5] = target: GlcNAc(b1-2)[GlcNAc(b1-4)]Man(a1-3)[GlcNAc(b1-2)Man(a1-6)]Man(b1-4)GlcNAc(b1-4)GlcNAc
# Summary of the method: as §1
# [6] = target: GlcNAc(b1-2)[GlcNAc(b1-4)]Man(a1-3)[GlcNAc(b1-4)][GlcNAc(b1-2)Man(a1-6)]Man(b1-4)GlcNAc(b1-4)GlcNAc
# Summary of the method: as §1
# [7] = target: GlcNAc(b1-2)[GlcNAc(b1-4)]Man(a1-3)[GlcNAc(b1-4)][GlcNAc(b1-2)[GlcNAc(b1-6)]Man(a1-6)]Man(b1-4)GlcNAc(b1-4)GlcNAc
# Summary of the method: as §1
# [8] = target: GlcNAc(b1-2)[GlcNAc(b1-4)]Man(a1-3)[GlcNAc(b1-4)][GlcNAc(b1-2)[GlcNAc(b1-6)]Man(a1-6)]Man(b1-4)GlcNAc(b1-4)[Fuc(a1-6)]GlcNAc
# Summary of the method: as §1
# [9] = target: GlcNAc(b1-2)[GlcNAc(b1-6)]Man(a1-6)[GlcNAc(b1-2)Man(a1-3)]Man(b1-4)GlcNAc(b1-4)GlcNAc
# Summary of the method: as §1
# [10] = target: GlcNAc(b1-2)[GlcNAc(b1-6)]Man(a1-6)[GlcNAc(b1-2)Man(a1-3)]Man(b1-4)GlcNAc(b1-4)[Fuc(a1-6)]GlcNAc
# Summary of the method: as §1
# [11] = target: GlcNAc(b1-2)[GlcNAc(b1-6)]Man(a1-6)[GlcNAc(b1-4)][GlcNAc(b1-2)Man(a1-3)]Man(b1-4)GlcNAc(b1-4)GlcNAc
# Summary of the method: as §1
# GlcNAc(b1-3)Fuc = target: GlcNAc(b1-3)Fuc
# Summary of the method: as §1
# GlcNAc(b1-3)Gal = target: GlcNAc(b1-3)Gal
# Summary of the method: as §1
# [12] = target: GlcNAc(b1-3)Gal(b1-3)GalNAc
# Summary of the method: as §1
# GlcNAc(b1-3)Gal(b1-4)Glc = target: GlcNAc(b1-3)Gal(b1-4)Glc
# Summary of the method: as §1
binder,measurement,setting,value
B1,glycan array binding signal (z-score),[1],-0.111
same,glycan array binding signal (z-score),[2],-0.811
same,glycan array binding signal (z-score),[3],-0.863
same,glycan array binding signal (z-score),[4],-0.552
same,glycan array binding signal (z-score),[5],-1.41
same,glycan array binding signal (z-score),[6],-1.06
same,glycan array binding signal (z-score),[7],-1.12
same,glycan array binding signal (z-score),[8],-0.395
same,glycan array binding signal (z-score),[9],0.421
same,glycan array binding signal (z-score),[10],0.26
same,glycan array binding signal (z-score),[11],-0.663
same,glycan array binding signal (z-score),GlcNAc(b1-3)Fuc,2.05
same,glycan array binding signal (z-score),GlcNAc(b1-3)Gal,-0.509
same,glycan array binding signal (z-score),[12],0.006
same,glycan array binding signal (z-score),GlcNAc(b1-3)Gal(b1-4)Glc,-1.05

# Two entries drawn at random from the list so far, as already listed:
binder,measurement,setting,value
B1,glycan array binding signal (z-score),GlcNAc(b1-3)Gal(b1-4)Glc,-1.05
same,glycan array binding signal (z-score),[2],-0.811
